Screen size: about 340,000 compounds; about 4,500 (1.3%) were called active. The shares of active, inactive and inconclusive entries below differ from those in the screen. Calls come from the whole dose curve; as a rule, active = well fitted inhibition curve with a large enough effect; inconclusive = small, poorly fitted or top-dose-only effect, or another doubt; inactive = no such curve, though single readings can be large or run the other way. Where the call is inconclusive, the potency comes from a doubtful curve fit.
The compounds below were run against DNA polymerase beta (Homo sapiens) (UniProt P06746) (assay: qHTS Assay for Inhibitors of DNA Polymerase Beta). Conditions: Pol beta primer extension/strand displacement, fluorescence kinetic; activity change, negative = inhibition: at 114 µM (top of the series).
In short: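 Reaction started by 50 nM substrate onto compound-treated Pol beta (10 nM, 15 min preincubation, room temperature); plates read at 0 min and 10 min. Normalized concentration-effect data fitted by four-parameter Hill equation.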
In the case of `CC(=O)O[C@]1(C(C)=O)CC[C@H]2C3C=C(Cl)C4=CC(=O)[C@@H]5C[C@H]5[C@]4(C)C3CC[C@@]21C` (stereo partly drawn), the Potency is reported as inconclusive: 0.0891 µM [inhibitor, full curve, poor fit]. With `CCOC(=O)c1sc(N2C(=O)C(O)=C(C(=O)c3ccco3)C2c2ccco2)nc1C` (stereo not drawn) the Potency was inconclusive: 56.2 µM [inhibitor, partial curve, poor fit]. In the case of `Cc1ccc(O)c(C(=O)CC(=O)c2ccc(Cl)cc2)c1`, the Potency is reported as inconclusive: 25.1 µM [inhibitor, full curve, poor fit]. In the case of `O=Cc1ccccc1OCc1nnsc1Cl`, the Potency is reported as inconclusive: 39.8 µM [inhibitor, partial curve, poor fit]. In the case of `Cc1ccc(NC(=O)N2CCN(c3ccc(Cl)c(Cl)c3)CC2)cc1`, the Potency is reported as inconclusive: 100 µM [inhibitor, single point]. `CCc1nnc(SCC(=O)Nc2cc(OC)ccc2OC)nc1CC` was tested, and the Potency was “inactive”. For `CSc1nc2ccsc2c(=O)n1-c1ccccn1`, the Potency was inconclusive: 22.4 µM [inhibitor, single point]. For `Cc1ccc2c(c1)CCCN2C(=O)C1CCCO1` (stereo not drawn), the Potency was inconclusive: 44.7 µM [inhibitor, single point]. `O=C(O)c1cnn(-c2ccccc2)c1-c1ccncc1` was tested, and the activity change, negative = inhibition was inconclusive: -81.3% [inhibitor]. In the case of `NC(=O)COc1ccc2cc(-c3ccc(F)cc3)c(=O)oc2c1`, the Potency is reported as active: 25.1 µM. With `CCOc1ccc(-c2nnc(SCC(=O)Nc3ccc(C)cc3Cl)o2)cc1` the Potency was inconclusive: 44.7 µM [inhibitor, partial curve]. For `CCn1nnc2cc(C(=O)Nc3ccc(C)c(Cl)c3)ccc21`, the Potency was inconclusive: 17.8 µM [inhibitor, full curve]. In the case of `O=C1c2ccccc2NC(c2ccc(-c3cccc([N+](=O)[O-])c3)o2)N1O` (stereo not drawn), the Potency is reported as “inactive”. With `Cn1nnnc1SCC(=O)c1ccco1` the Potency was inconclusive: 89.1 µM [inhibitor, single point]. `COC(=O)c1cc2oc3ccccc3c2n1Cc1nc(-c2cccc(C)c2)oc1C` was tested, and the Potency was “inactive”. For `CC(=O)Nc1ccc(NC(=O)C2(c3cccs3)CCOCC2)cc1`, the Potency was “inactive”. In the case of `COCCCNC(=O)C(C#N)c1nc2ccccc2nc1N1CCCC1` (stereo not drawn), the Potency is reported as inconclusive: 7.94 µM [inhibitor, partial curve, poor fit]. `COc1ccc(N2CCN(C(=O)c3ccc(CNS(=O)(=O)c4cc(C)ccc4C)cc3)CC2)cc1` was tested, and the Potency was inconclusive: 3.16 µM [inhibitor, single point]. With `Cc1cc(SCc2cccc([N+](=O)[O-])c2)nc(=O)[nH]1` the activity change, negative = inhibition was inconclusive: -38.2% [inhibitor]. With `COc1ccc(/C=C2/CC/C(=C\c3ccc(OC)c(OC)c3OC)C2=O)c(OC)c1OC` the Potency was inconclusive: 10 µM [inhibitor, full curve]. `CC1CCCCC1NS(=O)(=O)c1ccc(S(=O)(=O)NCc2ccncc2)cc1` (stereo not drawn) was tested, and the Potency was active: 70.8 µM. With `CCOC(=O)c1ccc(NC(=O)CNC(=O)C2CCCCC2)cc1` the Potency was inconclusive: 56.2 µM [inhibitor, partial curve]. With `CCCC(=O)N(Cc1cc(=O)[nH]c2ccccc12)c1cccc(C)c1` the Potency was “inactive”. With `O=C(c1ccccc1)C(Sc1ncn[nH]1)c1ccccc1` (stereo not drawn) the Potency was inconclusive: 100 µM [inhibitor, single point]. For `COCCCNC(=O)Cn1nnc(-c2ccc(NC(=O)c3cccnc3)cc2)n1`, the Potency was “inactive”. For `O=C(Nc1ccccc1O)c1ccc2c(c1)C(=O)N(Cc1ccco1)C2=O`, the activity change, negative = inhibition was inconclusive: -52.1% [inhibitor]. In the case of `CCC(=O)Nc1ccc(C(=O)CSc2nc(N)cc(N)n2)cc1`, the Potency is reported as “inactive”. With `O=C(/C=C/c1ccco1)N(Cc1ccccc1F)C1CCS(=O)(=O)C1` (stereo not drawn) the activity change, negative = inhibition was inconclusive: -68.9% [inhibitor]. `CC(C)(C)c1[nH]nc2c1C(c1cccnc1)C(C#N)=C(N)O2` (stereo not drawn) was tested, and the Potency was “inactive”. `O=C(CSc1nc(O)c(Cc2ccccc2)c(=O)[nH]1)Nc1nc2c(s1)CCCC2` was tested, and the Potency was inconclusive: 89.1 µM [inhibitor, single point]. For `O=C(CSc1nc2ccccc2c(=O)[nH]1)Nc1ccc(C(=O)O)cc1`, the Potency was inconclusive: 56.2 µM [inhibitor, partial curve, poor fit]. With `CC(C)(C)C1C/C(=C/c2ccco2)C(=O)/C(=C/c2ccco2)C1` (stereo not drawn) the Potency was active: 10 µM. With `Cc1cc(OCC(=O)Nc2cccnc2)c2c(C)c(C)c(=O)oc2c1` the Potency was inconclusive: 0.282 µM [inhibitor, full curve]. With `Clc1ccccc1-c1nnc(SCc2nc(-c3ccccc3)no2)n1-c1ccccc1` the Potency was “inactive”. In the case of `CC[n+]1c(C=C2C=C(C)OC(C)=C2)sc2ccccc21`, the Potency is reported as inconclusive: 22.4 µM [inhibitor, full curve]. For `O=c1c2c3c(sc2n(CCN2CCOCC2)c(=O)n1Cc1ccco1)CCCCC3`, the Potency was inconclusive: 0.282 µM [inhibitor, full curve]. `CCOc1ccccc1N(CC(=O)NC1CCCC1)S(=O)(=O)c1ccc(C)cc1` was tested, and the Potency was “inactive”. For `COC(=O)c1scc(-c2ccccc2)c1S(=O)(=O)Nc1ccc(C)c(Cl)c1`, the Potency was inconclusive: 79.4 µM [inhibitor, single point]. In the case of `Cc1ccc(-c2cc(C(=O)N/N=C/c3ccc(F)cc3)n[nH]2)o1`, the Potency is reported as inconclusive: 63.1 µM [inhibitor, partial curve, poor fit]. `C#CCOCCOCCOCCNc1nc(N2CCN(C(=O)[C@H]([C@@H](C)CC)n3cc([C@@H](N)CC(C)C)nn3)CC2)nc(N2CCN(C(=O)[C@H](Cc3ccc(O)cc3)n3cc([C@@H](N)CC(C)C)nn3)CC2)n1` was tested, and the Potency was inconclusive: 89.1 µM [inhibitor, single point]. With `Cc1nnc(SCC(=O)Nc2sc3c(c2C(=O)c2ccccc2)CCCC3)s1` the Potency was “inactive”. With `CCOC(=O)c1cc2nc(-c3ccco3)cc(C(F)(F)F)n2n1` the Potency was inconclusive: 79.4 µM [inhibitor, single point]. With `CCOc1ccc(CC(=O)Nc2c(C(=O)c3ccc(F)cc3)oc3ccc(Cl)cc23)cc1OCC` the Potency was “inactive”. In the case of `COc1ccc(Nc2c3c(nc4ccc(NC(=O)c5cc(Cl)ccc5OC)cc24)CCCC3)cc1OC`, the Potency is reported as inconclusive: 22.4 µM [inhibitor, full curve]. With `CCOC(=O)N1CCN(C(=O)c2ccc(Cl)nc2)CC1` the Potency was “inactive”. In the case of `Cc1c(-c2cccs2)[n+](=O)c2c(n1[O-])CCCC2`, the Potency is reported as inconclusive: 3.55 µM [inhibitor, single point]. `O=C(Nc1nc(-c2ccco2)c(-c2ccco2)s1)C1CC(=O)N(c2ccc3c(c2)OCCO3)C1` (stereo not drawn) was tested, and the Potency was active: 8.91 µM. For `COc1c(C(=O)Nc2nnc(C3CC3)s2)csc1Cl`, the Potency was inconclusive: 2.51 µM [inhibitor, partial curve, poor fit]. With `Nc1cc(Cl)ccc1N1CCCCC1` the Potency was “inactive”. `Cc1c(NC(=O)C(C)OC(=O)/C=C/c2ccco2)c(=O)n(-c2ccccc2)n1C` (stereo not drawn) was tested, and the Potency was inconclusive: 20 µM [inhibitor, full curve]. `Cc1ccc(CNC(=O)c2c[nH]n3c(=O)c(Cc4ccc(F)cc4Cl)c(C)nc23)cc1` was tested, and the Potency was active: 50.1 µM. For `O=C(N/N=C/c1ccco1)c1cc(-c2ccc3ccccc3c2)n[nH]1`, the Potency was inconclusive: 35.5 µM [inhibitor, partial curve, poor fit]. In the case of `O=C(CNC(=O)c1ccc2c(c1)OCO2)N/N=C/c1cc(Br)ccc1O`, the Potency is reported as active: 44.7 µM. `COc1ccc(N2Cc3cccc(C(=O)Nc4cccc(F)c4)c3C2=O)cc1` was tested, and the Potency was active: 14.1 µM. `CN1CCN(C(c2cccs2)c2nnnn2Cc2ccc(F)cc2)CC1` (stereo not drawn) was tested, and the Potency was inconclusive: 100 µM [inhibitor, single point]. In the case of `CCn1c(N)c(C(=O)NCc2ccc3c(c2)OCO3)sc1=S`, the Potency is reported as inconclusive: 89.1 µM [inhibitor, single point]. With `Cc1ccccc1NC(=O)/C(C#N)=C/c1ccc(-c2ccc(Cl)c(C(=O)O)c2)o1` the Potency was inconclusive: 3.16 µM [inhibitor, full curve]. With `O=C(Nc1cccc(NC(=O)c2cccs2)c1)c1ccc2c(c1)OCCO2` the Potency was inconclusive: 79.4 µM [inhibitor, single point]. With `COC/C=C/C1=CC2=CC(=O)C(C)(OC(=O)C3CCCC3)C(=O)C2=CO1` (stereo not drawn) the Potency was active: 39.8 µM. With `Cc1ccc(C)c(NC(=O)c2cc(=O)c3ccccc3o2)c1` the Potency was inconclusive: 89.1 µM [inhibitor, single point]. For `CCc1ccc(NC(=S)N(Cc2ccc(Cl)cc2)Cc2ccc(C(=O)O)cc2)cc1`, the Potency was inconclusive: 89.1 µM [inhibitor, single point]. In the case of `Cc1cc(NC(=O)OC(C)C)ccc1-c1ccc(NC(=O)OC(C)C)cc1C`, the activity change, negative = inhibition is reported as inconclusive: -32.6% [inhibitor]. `C/C(=N/NC(=O)CCc1c(C)n[nH]c1C)c1cccc([N+](=O)[O-])c1` was tested, and the Potency was inconclusive: 3.55 µM [inhibitor, single point]. With `COC(=O)c1ccc(COc2ccc3c(C)c(C)c(=O)oc3c2)o1` the Potency was active: 56.2 µM. `COc1ccc(NC(=O)c2c(NCc3cccs3)sc3c2CCCCC3)c(OC)c1` was tested, and the Potency was inconclusive: 50.1 µM [inhibitor, partial curve]. `COc1ccc2nc(CC(C)(C)CC(=O)O)c[n+]([O-])c2c1` was tested, and the Potency was inconclusive: 39.8 µM [inhibitor, single point]. `Cc1ccccc1NC(=O)C(Cc1ccccc1)n1cccc1` (stereo not drawn) was tested, and the Potency was inconclusive: 3.98 µM [inhibitor, partial curve]. `CCCOc1ccc(/C=c2\sc3nc(-c4ccco4)nn3c2=O)cc1OCC` was tested, and the Potency was inconclusive: 70.8 µM [inhibitor, single point].

Source: PubChem BioAssay AID485314 (National Center for Advancing Translational Sciences (NCATS), 2010)
% is set by controls: 0 for no effect and ±100 for the full control effect; potency is the fitted concentration of half-maximal effect.
